Assay results as given in PubChem BioAssay AID1508615 (Milbrandt Lab, Department of Genetics, Washington …, 2020).
Out of some 1,600 compounds screened, about 20 (1%) were called active.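 Rule for the calls: active = ratio of uncleaved NAD to its breakdown product ADP-ribose above 4, meaning the enzyme was inhibited; inactive = the rest.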 The list shows a part of the results.

By UniProt entry, the sequences of proteins in these tests, tags left out. Where a name states a change or a piece, a line headed by the entry shows the natural chain unless it says otherwise.
UniProt Q6SZW1: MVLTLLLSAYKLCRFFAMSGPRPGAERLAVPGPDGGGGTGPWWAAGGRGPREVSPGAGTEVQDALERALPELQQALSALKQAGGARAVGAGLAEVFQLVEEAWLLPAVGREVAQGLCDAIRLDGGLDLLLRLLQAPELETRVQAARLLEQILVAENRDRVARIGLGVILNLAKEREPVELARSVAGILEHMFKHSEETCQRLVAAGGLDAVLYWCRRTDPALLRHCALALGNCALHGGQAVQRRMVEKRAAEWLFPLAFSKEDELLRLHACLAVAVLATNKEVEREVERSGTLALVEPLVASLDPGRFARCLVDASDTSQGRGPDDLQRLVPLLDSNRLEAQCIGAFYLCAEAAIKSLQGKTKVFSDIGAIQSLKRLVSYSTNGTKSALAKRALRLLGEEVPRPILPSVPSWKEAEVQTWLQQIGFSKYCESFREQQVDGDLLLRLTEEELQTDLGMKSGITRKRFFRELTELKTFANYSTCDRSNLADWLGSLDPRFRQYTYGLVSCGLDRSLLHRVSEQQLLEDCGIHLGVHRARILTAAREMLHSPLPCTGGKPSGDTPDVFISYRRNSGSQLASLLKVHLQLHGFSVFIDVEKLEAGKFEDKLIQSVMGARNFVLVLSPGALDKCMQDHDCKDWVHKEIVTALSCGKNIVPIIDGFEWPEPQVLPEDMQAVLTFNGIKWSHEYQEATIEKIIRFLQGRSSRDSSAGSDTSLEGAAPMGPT

Each compound was assayed against NAD(+) hydrolase SARM1 (Homo sapiens) (UniProt Q6SZW1) (assay: inhibition of SAM-TIR NAD hydrolysis to ADPR – cell lysate, HPLC readout, primary screen (AID 1508615;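 note: substrate NAD at 5 µM with 60 min at 37 °C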)). Details: HEK293T SAM-TIR lysate, NAD/ADPR ratio by HPLC; at 5 µM; stronger effect = higher value.

Compound | NAD/ADPR ratio
CCCSc1ncnc2[nH]ncc12 | inactive: 3
CN(C)CCOc1ccc2c(c1)C(=O)/C(=C/c1ncc([N+](=O)[O-])n1C)C2 | inactive: 3
Cc1ccc(Cl)cc1NC(=O)c1cc2ccccc2cc1O | inactive: 3
C=CCOCCN(CC)CC | inactive: 3
CCOP(=O)(OCC)/C(C#N)=C/c1ccc(-c2ccc(F)cc2F)o1 | inactive: 3
O=[N+]([O-])c1ccc2[nH]c3nc4ccccc4nc3c2c1 | inactive: 3
CC(C)n1cc(C#N)c(N)n1 | inactive: 3
O=C1NC(=O)N2CCSC2(Cc2ccccc2)N1 (configuration not stated) | inactive: 3
COC(=O)Cc1[nH]c(=O)[nH]c1C(=O)OC | inactive: 3
C=C(C)C(=O)Oc1ccc(N=Nc2ccc(C)cc2)ccc1=O | inactive: 3
Cc1cc(OCCCCOc2ccc(C#N)cc2)ccc1[N+](=O)[O-] | inactive: 3
Oc1ccc(/C=C/c2cnccn2)cc1 | inactive: 3
CC12C(=O)N(c3nccs3)C(=O)C1(C)C1CCC2O1 (configuration not stated) | inactive: 3
CCOC(=O)c1c(N)ssc1=S | inactive: 3
CN1C(=O)CC2(C)C1=CCc1scnc12 (configuration not stated) | inactive: 3
Cn1c(=O)c2[nH]c(SCc3ccccn3)nc2n(C)c1=S | inactive: 3
O=C(N(c1ccccc1)c1ccccc1)N(c1ccccc1)c1ccccc1 | inactive: 3
CCC(CC)NCCOC(=O)c1ccc([N+](=O)[O-])cc1 | inactive: 3
CC12CCC(C(=Nc3ccc(N=C4C(=O)C5(C)CCC4C5(C)C)cc3)C1=O)C2(C)C | inactive: 3
O=[N+]([O-])c1cccc(/C=C/c2ccccn2)c1 | inactive: 3
CC(=O)[C@@]1(O)C(C)CC2C3C=C(C)C4=Cc5c(cnn5-c5ccccc5)C[C@]4(C)C3C(O)C[C@@]21C (some centres not stated) | inactive: 3
CC1=CC(C)(C)NC(=S)N1c1cccc2cc(S(=O)(=O)O)ccc12 | inactive: 3
OC(C#Cc1ccccc1)(c1ccccc1)c1ccccc1 | inactive: 3
CCCc1cc(=O)oc2c3c(c4c(c12)OC(C)(C)C=C4)OC(C)C(C)C3O (configuration not stated) | inactive: 3
C1CCCC(NC2=NCCO2)CCC1 | inactive: 3
O=[N+]([O-])c1ccc(Sc2cccc[n+]2[O-])c2nonc12 | active: 12.6

By substructure, the compounds so far containing a halogen
Compound | NAD/ADPR ratio
Cc1ccc(Cl)cc1NC(=O)c1cc2ccccc2cc1O | inactive: 3
CCOP(=O)(OCC)/C(C#N)=C/c1ccc(-c2ccc(F)cc2F)o1 | inactive: 3

(more compounds)

Compound | NAD/ADPR ratio
Cc1ccc(Nc2n[nH]c(=S)s2)cc1F | inactive: 3
COc1ccccc1/C=C(/C#N)C(=O)O | inactive: 3
O=c1cc(-c2ccc(O)cc2)oc2c(O)c(O)c(O)c(O)c12 | inactive: 3
CC(C)(CO)N1CCN(C(=S)Nc2ccccc2)CC1 | inactive: 3
O=C1C(CO)C(CO)C(CO)C1CO (configuration not stated) | inactive: 3
Nc1cc(-c2ccccc2)ccc1O | inactive: 3
O=C1N=NC2=C1c1c3ccccc3c(O)n1CC2 | inactive: 3
N#CC1=C2CCCCC2(O)NC1=O (configuration not stated) | inactive: 3
Nc1ccccc1SC1CC(=O)N(c2ccc(Cl)c(Cl)c2)C1=O (configuration not stated) | inactive: 3
Nc1ccccc1SC1CC(=O)N(c2ccccc2Cl)C1=O (configuration not stated) | inactive: 3
Nc1ccc(S(=O)(=O)Nc2cnc3ccccc3n2)cc1 | inactive: 3
NC(N)=Nc1ccc(N=C(N)N)cc1 | inactive: 3
O=c1ccn2c(n1)SC(c1ccccc1)C2 (configuration not stated) | inactive: 3
N#Cc1ncc(Cl)c2ccccc12 | inactive: 3
Oc1ccccc1N=Cc1c(O)ccc2ccccc12 | inactive: 3
CCCCSc1cc(C)nc(N)n1 | inactive: 3
CSc1nc(O)c(Nc2cccc(Cl)c2)c(=O)[nH]1 | inactive: 3
O=C(Nc1ccc(Cl)cc1)Nc1cccc2nsnc12 | inactive: 3
Cn1c(SCc2ccccn2)nc2c1c(=O)[nH]c(=O)n2C | inactive: 3
CSc1cccc(NC(=O)N2CCN(C)CC2)c1 | inactive: 3
C#CCCOC(=O)Nc1ccccc1 | inactive: 3
OC(c1cc(-c2ccc(C(F)(F)F)cc2)nc(C(F)(F)F)c1)C1CCCCN1 (configuration not stated) | inactive: 3
NC(=S)N/N=C/c1cc(-c2cccc(N)c2)ccn1 | inactive: 3
Clc1ccc(SCNc2ccccc2Cl)cc1 | inactive: 3
N=C(N)n1c(N)nc2ccccc2c1=O | inactive: 3
c1ccc(NN(Cc2ccncc2)c2ccccc2)cc1 | inactive: 3

Of the compounds above, three contain fluorine.
Compound | NAD/ADPR ratio
CCOP(=O)(OCC)/C(C#N)=C/c1ccc(-c2ccc(F)cc2F)o1 | inactive: 3
Cc1ccc(Nc2n[nH]c(=S)s2)cc1F | inactive: 3
OC(c1cc(-c2ccc(C(F)(F)F)cc2)nc(C(F)(F)F)c1)C1CCCCN1 (configuration not stated) | inactive: 3

Following part

Compound | NAD/ADPR ratio
CCCCCC(=O)C(=O)c1ccc(O)cc1O | inactive: 3
O=S1(=O)CCN(Cc2ccccn2)CC1 | inactive: 3
O=C(CN1CCOCC1)N1CCOCC1 | inactive: 3
Cc1ccc(-n2nnnc2-c2cccnc2)cc1 | inactive: 3
CC1CC2OC(=O)C3(C)CCCC(C)(C23)C1(O)CCc1ccoc1 (configuration not stated) | inactive: 3
COc1ccc([N+](=O)[O-])cc1NC(=O)N(C)Cc1ccco1 | inactive: 3
CC1(C)CC2(C)OC2C2(C1)N=NC(=Nc1ccccc1)O2 (configuration not stated) | inactive: 3
O=C(O)CCc1cccnc1 | inactive: 3
Nc1ccccc1C(=O)Nc1ccc(Cl)cc1Cl | inactive: 3
N#Cc1cc(-c2ccccc2)[nH]c1-c1nccc2ccccc12 | inactive: 3
Clc1ccccc1-c1nc(-c2ccncc2)no1 | inactive: 3
CC(=O)c1cc2c(cc1C)CCCC2(C)C | inactive: 3
N#CCS(=O)(=O)c1cccc[n+]1[O-] | inactive: 3
CC1(C)c2ccccc2-c2nc3ccccc3cc2C1O (configuration not stated) | inactive: 3
COC(=O)[C@H]1[C@H]2C[C@@H]3c4[nH]c5cc(OC)ccc5c4CCN3C[C@H]2C[C@@H](OC(=O)CC(C)=O)[C@@H]1OC | inactive: 3
C1=CC2(C=C1)OC21CCC2(C=CC3(C2)OC3C2CCCCC2)CC1 (configuration not stated) | inactive: 3
O=C(O)C(c1ccccc1)C1(O)CCCCC1 (configuration not stated) | inactive: 3
O=c1[nH]c(C(F)(F)C(F)(F)C(F)(F)F)no1 | inactive: 3
CCCCN1CCNC1=S | inactive: 3
CC(C)(C)NC(=O)c1ccc(C(=O)NC(C)(C)C)cc1 | inactive: 3
Cc1[nH]c(=O)n(C(C)C)c(=O)c1Br | inactive: 3
Nc1nc(N)nc(C2C=CCCC2)n1 (configuration not stated) | inactive: 3
COC(=O)c1cncc(C)c1 | inactive: 3
O=S(=O)(O)c1ccc2c(c1)C(C(Cl)(Cl)Cl)OC(C(Cl)(Cl)Cl)O2 (configuration not stated) | inactive: 3
CC1=C(O)C(=O)C(c2c(C)cc(C)c(Br)c2C)=C(O)C1=O | inactive: 3
